Results are given in words; binding and its absence hold for the method and conditions named. Binding seen in cells or lysates may run through a third protein. Some binding calls cover weakened binding; strength is not graded here.
B1: VZV gB wild type expressed from pCAGGS-gB in CHO-DSP1 cells (protein, UniProt Q4JR05 72-931)
chain: VSPSSFYESLQVEPTQSEDITRSAHLGDGDEIREAIHKSQDAETKPTFYVCPPPTGSTIVRLEPPRTCPDYHLGKNFTEGIAVVYKENIAAYKFKATVYYKDVIVSTAWAGSSYTQITNRYADRVPIPVSEITDTIDKFGKCSSKATYVRNNHKVEAFNEDKNPQDMPLIASKYNSVGSKAWHTTNDTYMVAGTPGTYRTGTSVNCIIEEVEARSIFPYDSFGLSTGDIIYMSPFFGLRDGAYREHSNYAMDRFHQFEGYRQRDLDTRALLEPAARNFLVTPHLTVGWNWKPKRTEVCSLVKWREVEDVVRDEYAHNFRFTMKTLSTTFISETNEFNLNQIHLSQCVKEEARAIINRIYTTRYNSSHVRTGDIQTYLARGGFVVVFQPLLSNSLARLYLQELVRENTNHSPQKHPTRNTRSRRSVPVELRANRTITTTSSVEFAMLQFTYDHIQEHVNEMLARISSSWCQLQNRERALWSGLFPINPSALASTILDQRVKARILGDVISVSNCPELGSDTRIILQNSMRVSGSTTRCYSRPLISIVSLNGSGTVEGQLGTDNELIMSRDLLEPCVANHKRYFLFGHHYVYYEDYRYVREIAVHDVGMISTYVDLNLTLLKDREFMPLQVYTRDELRDTGLLDYSEIQRRNQMHSLRFYDIDKVVQYDSGTAIMQGMAQFFQGLGTAGQAVGHVVLGATGALLSTVHGFTTFLSNPFGALAVGLLVLAGLVAAFFAYRYVLKLKTSPMKALYPLTTKGLKQLPEGMDPFAEKPNATDTPIEEIGDSQNTEPSVNSGFDPDKFREAQEMIKYMTLVSAAERQESKARKKNKTSALLTSRLTGLALRNRRGYSRVRTENVTGV

The chains behind the UniProt entries cited, without tags or fusion partners. Residues count along the entry.
UniProt P09259, residues 31-623: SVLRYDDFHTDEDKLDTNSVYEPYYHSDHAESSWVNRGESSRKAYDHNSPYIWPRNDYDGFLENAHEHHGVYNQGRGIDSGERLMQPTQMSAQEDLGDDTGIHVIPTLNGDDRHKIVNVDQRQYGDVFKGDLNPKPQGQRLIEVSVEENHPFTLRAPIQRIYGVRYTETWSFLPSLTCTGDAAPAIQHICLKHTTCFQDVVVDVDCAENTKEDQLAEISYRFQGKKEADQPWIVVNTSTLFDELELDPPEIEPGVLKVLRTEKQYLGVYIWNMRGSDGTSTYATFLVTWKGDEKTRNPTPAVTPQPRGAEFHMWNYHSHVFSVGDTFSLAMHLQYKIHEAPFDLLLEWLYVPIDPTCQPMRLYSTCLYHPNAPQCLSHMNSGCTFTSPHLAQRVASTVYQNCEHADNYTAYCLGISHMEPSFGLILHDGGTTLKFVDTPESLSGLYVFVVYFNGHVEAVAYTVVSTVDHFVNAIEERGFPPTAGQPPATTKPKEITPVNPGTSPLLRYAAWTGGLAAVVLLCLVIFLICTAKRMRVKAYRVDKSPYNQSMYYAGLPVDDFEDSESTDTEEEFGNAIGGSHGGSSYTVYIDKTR

Molecular target: VZV gH-gL heterodimer with V5-tagged gH (varicella-zoster virus) (UniProt P09260)
Experiment: co-IP; CHO-DSP1 cells transfected with gB, gH[V5] and gL (for the specificity test also pBud-gE/gI); anti-V5 agarose; western blots for V5, gB and gE

| Molecule | binding |
| --- | --- |
| VZV gB 109AAAA112 (from UniProt Q4JR05 72-931) | binds |
| VZV gB D112A (from UniProt Q4JR05 72-931) | binds |
| VZV gB K109A (from UniProt Q4JR05 72-931) | binds |
| VZV gB K109R (from UniProt Q4JR05 72-931) | binds |
| VZV gB Q111A (from UniProt Q4JR05 72-931) | binds |
| VZV gB S110A (from UniProt Q4JR05 72-931) | binds |
| VZV gE (from UniProt P09259 31-623) | no binding |

Molecular target: VZV gH-gL heterodimer with V5-tagged gH (varicella-zoster virus) (UniProt P09260)
Experiment: as above
Remark: another data set of the same source

| Molecule | binding |
| --- | --- |
| B1 | binds |
